Reference: article PMC12849452
These are yes or no findings as the source states them, for the method shown. Binding seen in cells or lysates may run through a third protein. Some results given as binding are weak or reduced against the parent protein; the word gives no strength.

Amino acid sequences for entries named in this document (tags omitted).
UniProt P15307: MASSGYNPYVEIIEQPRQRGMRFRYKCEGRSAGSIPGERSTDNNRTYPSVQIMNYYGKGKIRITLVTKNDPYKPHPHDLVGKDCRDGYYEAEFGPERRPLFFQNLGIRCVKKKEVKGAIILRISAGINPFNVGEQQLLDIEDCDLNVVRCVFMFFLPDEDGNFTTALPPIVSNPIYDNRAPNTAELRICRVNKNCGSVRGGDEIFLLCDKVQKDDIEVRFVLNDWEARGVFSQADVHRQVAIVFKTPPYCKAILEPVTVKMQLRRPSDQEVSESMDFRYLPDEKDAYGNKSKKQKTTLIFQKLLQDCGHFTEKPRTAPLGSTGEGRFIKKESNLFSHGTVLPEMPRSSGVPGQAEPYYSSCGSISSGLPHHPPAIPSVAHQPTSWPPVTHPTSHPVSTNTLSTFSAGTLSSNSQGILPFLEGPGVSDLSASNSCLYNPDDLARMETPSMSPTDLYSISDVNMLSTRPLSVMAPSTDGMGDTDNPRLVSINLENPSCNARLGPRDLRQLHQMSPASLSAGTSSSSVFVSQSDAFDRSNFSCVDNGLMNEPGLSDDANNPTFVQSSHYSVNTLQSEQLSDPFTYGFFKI
UniProt Q04207: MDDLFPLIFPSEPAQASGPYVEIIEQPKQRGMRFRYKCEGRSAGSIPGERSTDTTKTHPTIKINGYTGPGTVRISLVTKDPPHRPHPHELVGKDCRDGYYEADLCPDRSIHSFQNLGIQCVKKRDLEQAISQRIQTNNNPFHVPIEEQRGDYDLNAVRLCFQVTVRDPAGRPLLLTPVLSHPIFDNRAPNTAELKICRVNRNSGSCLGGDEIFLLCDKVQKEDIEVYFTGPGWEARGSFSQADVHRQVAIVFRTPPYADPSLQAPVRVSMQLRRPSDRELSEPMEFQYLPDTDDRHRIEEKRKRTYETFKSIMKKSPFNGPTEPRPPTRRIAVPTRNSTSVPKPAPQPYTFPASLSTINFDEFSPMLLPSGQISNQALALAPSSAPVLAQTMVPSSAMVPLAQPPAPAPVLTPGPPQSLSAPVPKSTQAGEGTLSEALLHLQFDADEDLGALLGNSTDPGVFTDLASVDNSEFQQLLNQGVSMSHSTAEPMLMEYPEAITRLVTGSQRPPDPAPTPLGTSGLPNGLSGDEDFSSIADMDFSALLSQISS

Biological target: c-Rel (REL proto-oncogene NF-kB subunit) (UniProt P15307)
Assay: co-IP; lysate of fifty million cells in 1% Triton-X, 150 mM NaCl, 2 mM EDTA, 50 mM Tris-Cl pH 8, 0.5 mM DTT; IP with anti-c-Rel sc-71, anti-p65 sc-372, anti-RelB sc-226 or rabbit IgG on protein A/G agarose at 4 °C; western blot

In the case of RelA (p65) (from UniProt Q04207 1-549), the binding is reported as “binds”.
